Amino acid sequences for entries named in this document (tags omitted). Residues count along the entry.
UniProt C0LGT6, residues 25-1031: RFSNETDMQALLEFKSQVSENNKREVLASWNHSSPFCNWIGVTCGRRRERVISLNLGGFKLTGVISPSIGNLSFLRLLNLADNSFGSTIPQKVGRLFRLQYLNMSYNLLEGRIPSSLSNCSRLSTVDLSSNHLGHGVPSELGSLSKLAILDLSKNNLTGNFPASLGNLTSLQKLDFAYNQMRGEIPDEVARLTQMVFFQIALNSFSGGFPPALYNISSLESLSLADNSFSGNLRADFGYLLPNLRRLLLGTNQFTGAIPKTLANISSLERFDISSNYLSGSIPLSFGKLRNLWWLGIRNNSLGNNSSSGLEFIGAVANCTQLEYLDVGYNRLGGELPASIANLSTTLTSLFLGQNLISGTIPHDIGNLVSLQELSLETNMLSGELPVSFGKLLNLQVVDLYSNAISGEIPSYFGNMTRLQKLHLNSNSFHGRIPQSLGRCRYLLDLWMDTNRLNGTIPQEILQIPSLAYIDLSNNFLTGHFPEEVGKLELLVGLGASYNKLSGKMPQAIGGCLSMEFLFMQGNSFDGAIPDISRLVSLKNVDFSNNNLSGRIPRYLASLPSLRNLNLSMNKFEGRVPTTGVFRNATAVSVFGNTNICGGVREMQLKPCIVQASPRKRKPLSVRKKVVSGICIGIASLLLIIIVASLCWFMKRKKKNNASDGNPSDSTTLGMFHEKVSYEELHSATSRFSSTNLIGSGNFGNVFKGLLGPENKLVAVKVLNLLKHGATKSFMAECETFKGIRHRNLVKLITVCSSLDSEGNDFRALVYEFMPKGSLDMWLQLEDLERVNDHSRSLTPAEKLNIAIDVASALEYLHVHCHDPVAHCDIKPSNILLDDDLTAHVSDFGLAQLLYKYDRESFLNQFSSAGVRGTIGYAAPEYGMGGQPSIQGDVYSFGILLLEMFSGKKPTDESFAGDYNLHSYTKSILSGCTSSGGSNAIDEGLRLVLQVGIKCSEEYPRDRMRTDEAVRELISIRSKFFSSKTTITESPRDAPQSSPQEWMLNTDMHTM

According to article doi:10.1101/2020.10.25.354514:

T1: PUB4-FLAG (Arabidopsis) (UniProt O22193)
T1 sequence: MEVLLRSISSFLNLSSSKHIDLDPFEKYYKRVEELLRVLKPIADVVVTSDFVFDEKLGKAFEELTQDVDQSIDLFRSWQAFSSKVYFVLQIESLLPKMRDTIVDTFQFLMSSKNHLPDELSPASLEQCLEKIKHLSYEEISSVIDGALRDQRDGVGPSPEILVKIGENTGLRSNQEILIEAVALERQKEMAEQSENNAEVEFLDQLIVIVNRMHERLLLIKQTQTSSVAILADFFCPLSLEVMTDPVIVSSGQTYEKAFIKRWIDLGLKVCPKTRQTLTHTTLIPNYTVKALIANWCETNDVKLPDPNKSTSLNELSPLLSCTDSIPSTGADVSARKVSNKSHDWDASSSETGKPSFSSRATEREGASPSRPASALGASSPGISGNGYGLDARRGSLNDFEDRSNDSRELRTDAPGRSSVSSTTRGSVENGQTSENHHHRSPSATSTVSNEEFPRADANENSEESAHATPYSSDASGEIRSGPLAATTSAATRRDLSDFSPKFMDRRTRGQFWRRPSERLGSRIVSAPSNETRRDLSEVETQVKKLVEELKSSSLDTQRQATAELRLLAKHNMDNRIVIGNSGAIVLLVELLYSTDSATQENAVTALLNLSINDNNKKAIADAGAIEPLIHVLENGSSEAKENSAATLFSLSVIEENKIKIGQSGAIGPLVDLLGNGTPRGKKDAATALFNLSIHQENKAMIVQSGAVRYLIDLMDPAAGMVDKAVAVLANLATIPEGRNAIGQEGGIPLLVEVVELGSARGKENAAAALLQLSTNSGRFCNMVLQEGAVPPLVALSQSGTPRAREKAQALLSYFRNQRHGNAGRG

B1: XLG2 (protein, UniProt C6KIE6 1-861)
chain: MAAVIRKLLPFPSPNPKRDNRESDDDDETSSGYRIEYSFASEYKGPLIANVPRALPVEVDQIPTALPVSFSSLRSGISYPVAPLVMTKDTKRPPDSGIEKKNGFVDSAAGSSVVLIGRDVVSGSSSSSSSKRLDVPEEVKSPADFRLSPSSPLSASAREEDHLDDDRVSDVGPRAVRFVEPFQSSECDESSYVSDGESIAATHRAERKGKRGSCYRCQLGNRFTEKEVCIVCDAKYCFNCVRRAMGAMPEGRKCQACIGYRIDESKRASLGKCSRMLKRHLTDSELRQVMNAEITCKANQLPSRLIIVNDKPLSEDELYTLQTCPNPPKKLKPGHYWYDKVAGYWGKIGEKPSQIISPNNSIGGYISEKVSNGDTEIYINGREITKPELTMLKWAGVQCEGKPHFWVDSDGSYREEGQKHPIGNIWSKKRAKIACAVFSLPVPPASSAVEPYDVPLYEQKMLNKLLLIGSEKGGATTIYKQARSLYNVSFSLEDRERIKFIIQTNLYTYLAMVLEAHERFEKEMSNDQSSGNVGDETSAKPGNSINPRLKHFSDWVLKEKEDGNLKIFPPSSRENAQTVADLWRVPAIQATYKRLRDTLPRNAVYFLERILEISRSEYDPSDMDILQAEGLSSMEGLSCVDFSFPSTSQEESLESDYQHDTDMKYQLIRLNPRSLGENWKLLEMFEDADLVIFCVSLTDYAENIEDGEGNIVNKMLATKQLFENMVTHPSLANKRFLLVLTKFDLLEEKIEEVPLRTCEWFEDFNPLISQNQTSRHNPPMAQRAFHYIGYKFKRLYDSILEPVNMRGRSFKPKLFVCQVSLESDTVDNALRYAREILKWHVEETSMFQEMSTTSIEASSSS
B2: XLG1 (protein, UniProt O80462 1-888)
chain: MPLKEDDCCLFAEEYDGPPLSYNIPCAVPINVEKIPVAAVVSPVCISDNMSFPVIQPILSVESKKFLIDSVSPTSVIANCGSNQLELVSDSITVSPTSVIEHTEEEEEEEGGDGEDCELSSSGELLLRSCSVKESLDLNESSSNPLVPDWESNESVLSMDYPSSRVTGDCVSETNGDGKKQPVVTFLGIASDDGFEEEESCSNLRRVRVVPVKKQPQTKGKKGSCYRCFKGSRFTEKEVCLVCDAKYCNSCVLRAMGSMPEGRKCVTCIGFPIDESKRGSLGKCSRMLKRLLNDLEVKQIMKTERFCEANQLPAEYVYVNGQPLYPEELVTLQTCSNPPKKLKPGDYWYDKVSGLWGKEGEKPYQIISPHLNVGGPISPEASNGNTQVFINGREITKVELRMLQLAGVQCAGNPHFWVNEDGSYQEEGQKNTKGYIWGKAGTKLLCAVLSLPVPSKSTANASGEQLYSANSRSILDHLEHRTLQKILLVGNSGSGTSTIFKQAKILYKDVPFLEDERENIKVIIQTNVYGYLGMLLEGRERFEEEALALRNTKQCVLENIPADEGDAKSNDKTVTMYSIGPRLKAFSDWLLKTMAAGNLGVIFPAASREYAPLVEELWRDAAIQATYKRRSELGLLPSVASYFLERAIDVLTPDYEPSDLDILYAEGVTSSSGLACLDFSFPQTASEENLDPSDHHDSLLRYQLIRVPSRGLGENCKWIDMFEDVGMVVFVVSMSDYDQVSEDGTNKMLLTKKLFESIITHPIFENMDFLLILNKYDLLEEKVERVPLARCEWFQDFNPVVSRHRGSNNGNPTLGQLAFHFMAVKFKRFYSSLTGKKLFVSSSKSLDPNSVDSSLKLAMEILKWSEERTNICMSEYSMYSTEPSSFSN
B3: SERK2 (receptor, UniProt Q9XIC7 30-628)
chain: NMEGDALHSLRANLVDPNNVLQSWDPTLVNPCTWFHVTCNNENSVIRVDLGNADLSGQLVPQLGQLKNLQYLELYSNNITGPVPSDLGNLTNLVSLDLYLNSFTGPIPDSLGKLFKLRFLRLNNNSLTGPIPMSLTNIMTLQVLDLSNNRLSGSVPDNGSFSLFTPISFANNLDLCGPVTSRPCPGSPPFSPPPPFIPPPIVPTPGGYSATGAIAGGVAAGAALLFAAPALAFAWWRRRKPQEFFFDVPAEEDPEVHLGQLKRFSLRELQVATDSFSNKNILGRGGFGKVYKGRLADGTLVAVKRLKEERTPGGELQFQTEVEMISMAVHRNLLRLRGFCMTPTERLLVYPYMANGSVASCLRERPPSQLPLAWSIRQQIALGSARGLSYLHDHCDPKIIHRDVKAANILLDEEFEAVVGDFGLARLMDYKDTHVTTAVRGTIGHIAPEYLSTGKSSEKTDVFGYGIMLLELITGQRAFDLARLANDDDVMLLDWVKGLLKEKKLEMLVDPDLQSNYTEAEVEQLIQVALLCTQSSPMERPKMSEVVRMLEGDGLAEKWDEWQKVEVLRQEVELSSHPTSDWILDSTDNLHAMELSGPR
B4: BAK1 (receptor, UniProt Q94F62 26-615)
chain: NAEGDALSALKNSLADPNKVLQSWDATLVTPCTWFHVTCNSDNSVTRVDLGNANLSGQLVMQLGQLPNLQYLELYSNNITGTIPEQLGNLTELVSLDLYLNNLSGPIPSTLGRLKKLRFLRLNNNSLSGEIPRSLTAVLTLQVLDLSNNPLTGDIPVNGSFSLFTPISFANTKLTPLPASPPPPISPTPPSPAGSNRITGAIAGGVAAGAALLFAVPAIALAWWRRKKPQDHFFDVPAEEDPEVHLGQLKRFSLRELQVASDNFSNKNILGRGGFGKVYKGRLADGTLVAVKRLKEERTQGGELQFQTEVEMISMAVHRNLLRLRGFCMTPTERLLVYPYMANGSVASCLRERPESQPPLDWPKRQRIALGSARGLAYLHDHCDPKIIHRDVKAANILLDEEFEAVVGDFGLAKLMDYKDTHVTTAVRGTIGHIAPEYLSTGKSSEKTDVFGYGVMLLELITGQRAFDLARLANDDDVMLLDWVKGLLKEKKLEALVDVDLQGNYKDEEVEQLIQVALLCTQSSPMERPKMSEVVRMLEGDGLAERWEEWQKEEMFRQDFNYPTHHPAVSGWIIGDSTSQIENEYPSGPR

What was measured:
PUB4-FLAG (Arabidopsis) [1] = molecular target: T1, PUB4-FLAG (Arabidopsis); assay: affinity purification with mass spectrometry
PUB4-FLAG (Arabidopsis) [2] = molecular target: T1, PUB4-FLAG (Arabidopsis); assay: affinity purification with mass spectrometry; remark: listed apart in the source

Molecule	binding (PUB4-FLAG (Arabidopsis) [1])	binding (PUB4-FLAG (Arabidopsis) [2])
EFR (from UniProt C0LGT6 25-1031) (receptor)	binds	–
B1	–	binds
B2	–	binds
B3	–	binds
B4	–	binds

Like-named read-outs stand apart in the source and are kept apart here. Results are given in words; binding and its absence hold for the method and conditions named. Binding seen in cells or lysates may run through a third protein. Here binding means that the protein was enriched with, or labelled near, the bait; the list need not be complete. Sequences can lack the tags named with a protein.
